Laboratory results published in PubChem BioAssay AID1259415 (National Center for Advancing Translational Sciences (NCATS), 2018).
The whole screen tested about 410,000 compounds, of which about 18,000 (4.4%) were called active. The shares of active, inactive and inconclusive entries below differ from those in the screen. No stated cut-off is given here; in the data, active means activity change below about -60%; inconclusive means no clear call, values can overlap the other calls; inactive means above about -39%.

Experiment: qHTS Assay for inhibitors of the human cytomegalovirus (HCMV)
Settings: HFF cells, HCMV-luciferase reporter, 72 h; at 57.5 µM; stronger effect = lower value
Procedure, shortened: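 HFF cells seeded 16 h at 37C, treated with compounds, infected with luciferase-reporter HCMV at MOI 1 PFU/cell; luciferase read at 72 h post infection, normalized to buffer-only and Salinomycin controls.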
On the % scale 0 is the no-effect control and ±100 the full control effect.

Compound | activity change, negative = inhibition
O=C(Nc1ccccc1-c1ccccc1)C(c1ccccc1)c1ccccc1 | inconclusive: -56.9%
O=[N+]([O-])c1cc(/C=N/O)ccc1N1CCCC1 | inconclusive: -45.3%
O=C(NC1CC(=O)N(c2ccccc2)C1)c1cc2ccccc2o1 (stereo not drawn) | inconclusive: -51.4%
O=C(Nc1ccc(Cl)cc1)Nc1ccc(Cl)c(Cl)c1 | active: -98.4%
Nc1nc(CSc2nnnn2-c2ccccc2)nc(N2CCCc3ccccc32)n1 | inactive: -17.8%
CCCCOc1ccccc1NC(=O)Cn1c(-c2cncs2)nc2ccccc21 | inactive: -6.73%
O=C(CCN1C(=O)c2ccccc2S1(=O)=O)Nc1ccccc1 | inconclusive: -44.1%
COc1cc(C(=O)NCCC(=O)NCCN2CCCCCC2)cc(OC)c1OC | inconclusive: -40.5%
CC(OC(=O)c1ccco1)C(=O)Nc1nc(-c2ccccc2)cs1 (stereo not drawn) | inactive: 57.3%
CC(=O)C1C=CC(C)(C(=O)O)C2C=C(C)C(=O)C(C)(O)C12 (stereo not drawn) | inconclusive: -48.1%
COC(=O)c1c(NC(=O)C2SC(=NC3CCCCC3)C(C(N)=O)=C2N)sc2c1CCCC2 (stereo not drawn) | inactive: 40.5%
CC(C)(C)c1ccc(C(=O)Cn2nc(C(=O)O)c3ccccc3c2=O)cc1 | inactive: -14.4%
CC(C)(C)c1ccc2c(c1)C(=O)c1ccccc1C2=O | inactive: -20.3%
CC1CCCN(C(=O)N2c3ccccc3Sc3ccccc32)C1 (stereo not drawn) | active: -67.9%
CN(C)c1ccc(C(=O)Nc2nc3c(s2)CCCC3)cc1 | active: -66.6%
CCSc1nc2c(c(=O)n1-c1ccc(F)cc1)SCC2 | inactive: -22.1%
Cc1nnsc1C(=O)N/N=C/c1c(F)cccc1Cl | inconclusive: -44%
Cc1ccc(NC(=O)Cn2cc(C(=O)c3cccs3)c3ccccc32)cc1C | inconclusive: -50.7%
Cc1ccc(C(=O)c2cn(Cc3cccc(F)c3)c3nc(C)ccc3c2=O)cc1 | inconclusive: -48%
COC(=O)c1c(-c2ccc(Cl)cc2)noc1N1CCN(c2cccc(OC)c2)CC1 | active: -71.7%
COc1ccc(COCC(O)CN2CCC(C(N)=O)CC2)cc1OC (stereo not drawn) | inactive: -25%
O=C(C1CC1)N1CCN(c2ccnc3cc(Cl)ccc23)CC1 | inconclusive: -44.3%

Compound | activity change, negative = inhibition
CCN(CC)c1ccc(/C=N/N2CCN(Cc3ccc(C)cc3C)CC2)c(O)c1 | inconclusive: -50.4%
CC(C)[N+]1=C2C=CC=CC=C2SC12C([N+](=O)[O-])=CC(=[N+]([O-])[O-])C=C2[N+](=O)[O-] (stereo not drawn) | inconclusive: -59.5%
CC(C)=CC(=O)O[C@H]1[C@@H]2[C@H](C)C(=O)O[C@@H]2C[C@@H](C)[C@@H]2[C@@H](O)CC(=O)[C@]21C | inconclusive: -44.8%
C/C(=N\N1C(=O)c2ccccc2NC1c1ccco1)c1ccccc1O (stereo not drawn) | active: -77.8%
COc1cc(S(=O)(=O)NCc2ccncc2)ccc1Br | active: -69.8%
Cc1ccc(S(=O)(=O)Nc2cccc(C(=O)NCc3ccc(S(N)(=O)=O)cc3)c2)cc1 | inactive: 6.75%
Oc1[nH]c2ccccc2c1C=Nc1ccccc1 | inactive: 34.6%
CN1C(=O)c2ccccc2Sc2ccc(NC(=O)N3CCCC3)cc21 | inactive: -1.17%
CNC(=S)Nc1ccc([N+](=O)[O-])c(C)c1 | inconclusive: -41.6%
CCCn1c(SC(C)C(=O)NCC2CCCO2)nc2sc3c(c2c1=O)CCC3 (stereo not drawn) | inactive: -35.8%
CCN1CCN(CCCNC(=O)c2cnn(-c3ccc(C)cc3)c2C2CCN(C(=O)OC(C)(C)C)CC2)CC1 | inconclusive: 0%
CCCCN(C)CCCNC(=O)Cn1cc2c(n1)-c1c(oc(C(=O)N3CCCC3)c1C)CC2 | inconclusive: -53.6%
CC(C)=CC(=O)Nc1nnc(C(C)C)s1 | inconclusive: -43%
COc1cc2c(cc1NC(=O)CSc1ccccc1)oc1ccccc12 | inconclusive: -44.8%
Cc1ccc(CSc2nnc(-c3cccc(S(=O)(=O)N4CCOCC4)c3)n2C2CCCC2)cc1 | inconclusive: -57%
CC(C)(C)c1ccc(C(=O)N/N=C/c2ccccn2)cc1 | inactive: 95.8%
Cc1cn([C@H]2C[C@H](O)[C@@H](CCC(=O)NCc3ccccc3)O2)c(=O)[nH]c1=O | inactive: -10.6%
CCOc1ccc(CN(C)C(C)C(=O)Nc2ccc([N+](=O)[O-])cc2Cl)cc1OC (stereo not drawn) | inconclusive: -55.3%
C/C=C/c1ccc(OCCCCN2CC(C)CC(C)C2)c(OC)c1 (stereo not drawn) | inactive: -23.5%
COc1cccc(NC(=O)CSc2nc(=O)n(Cc3ccncc3)c3c2CCCC3)c1 | active: -84.6%
CC(=O)c1ccc(NC(=O)c2ccccc2-c2ccccc2C(=O)O)cc1 | inactive: 56.9%
CC(C)Oc1cccc(C(=O)Nc2nnc([C@@H]3C[C@H](O)[C@@H](CO)O3)s2)c1 | inconclusive: -49.4%

Quoted from the listing.
For activity change, negative = inhibition, COc1cc2c(cc1NC(=O)CSc1ccccc1)oc1ccccc12 is entered as inconclusive: -44.8%
For activity change, negative = inhibition, Nc1nc(CSc2nnnn2-c2ccccc2)nc(N2CCCc3ccccc32)n1 is entered as inactive: -17.8%

Going on with the list.

Compound | activity change, negative = inhibition
Cc1ccc(/C=C/C(=O)O)cc1S(=O)(=O)N(C)CCO | inconclusive: -41.5%
O=C(c1cc2sccc2n1Cc1ccccc1)N1CCN(c2nc3ccccc3s2)CC1 | inconclusive: -53.2%
CCc1c(C(=O)N/N=C/c2ccc(C)o2)csc1C | inactive: -22.1%
C[C@@H]1CN([C@H](C)CO)S(=O)(=O)c2ccc(-c3ccc(C#N)cc3)cc2O[C@H]1CN(C)C(=O)Nc1cc(F)ccc1F | inconclusive: -51.4%
c1ccc(-c2cc(CSc3nc4ccccc4[nH]3)on2)cc1 | inconclusive: -49.8%
COc1cccc(OCc2cc(C(=O)NCCN3CCCCC3CO)no2)c1 (stereo not drawn) | inconclusive: -41.1%
Nc1nc2ccccc2cc1C(=O)NCc1ccc(-c2ccccc2)cc1 | inconclusive: -59.7%
O=C1/C(=C/c2ccccc2)SC(=S)N1CC(=O)N1CCCCC1c1cccnc1 (stereo not drawn) | active: -90.1%
COc1ccc(NC(=O)CN2C(=O)NC3(CCCCCC3)C2=O)cc1Cl | inactive: 16.7%
CC(=O)c1cccc(-c2ccnc3c2CC(C(=O)Nc2ccc(Cl)cc2)O3)c1 (stereo not drawn) | inconclusive: -42.3%
S=c1[nH]nc2nnc3ccccc3n12 | inconclusive: -40.4%
O=C(Nc1ccc(Cl)c(Cl)c1)OCc1cnc(Cl)s1 | inactive: 1.34%
COc1ccc(NC(=S)N2CCC(Cc3ccccc3)CC2)cc1OC | inconclusive: -53%
CC(Oc1ccc(Cl)cc1Cl)C(=O)Nc1ccncc1 (stereo not drawn) | inconclusive: -57.6%
O=C1NCCCC1C(=O)N/N=C/c1cc([N+](=O)[O-])ccc1O (stereo not drawn) | inconclusive: -44.8%
COc1ccc(C(=O)Nc2ccc(Cl)c(S(=O)(=O)N3CCOCC3)c2)cc1 | active: -76%
CCOC(=O)CC1=NN(c2ccccc2)C(=O)C1=c1sc(=C2SC(C)=C(C)N2CC)c(=O)n1CC | inconclusive: -42.6%
COc1cc(/C=N/NC(=O)c2cccc(S(=O)(=O)N3CCCC3)c2)cc(OC)c1O | inactive: -19.1%
O=C(Cc1ccc(Br)cc1)c1ccc(O)cc1O | inconclusive: -48.1%
CCC(C)NC(=O)CCc1nnc2ccc(N3CCC(C)CC3)nn12 (stereo not drawn) | active: -60.5%
CC(C)N1CCc2c(sc(NC(=O)C3CCCCC3)c2C(N)=O)C1 | active: -79.1%
O=C(NCc1ccccc1F)C1CC(=O)N(Cc2ccco2)C1 (stereo not drawn) | inconclusive: -47.3%

2 neighbouring entries already listed, for reference:
Compound | activity change, negative = inhibition
Nc1nc2ccccc2cc1C(=O)NCc1ccc(-c2ccccc2)cc1 | inconclusive: -59.7%
O=C1/C(=C/c2ccccc2)SC(=S)N1CC(=O)N1CCCCC1c1cccnc1 (stereo not drawn) | active: -90.1%

Further results

Compound | activity change, negative = inhibition
CC[N+](C)(CC)CCOC(=O)C(O)(c1ccccc1)C1CCCCC1 (stereo not drawn) | inconclusive: -50.1%
O=C(CSc1nnc(Cn2c(=O)sc3ccccc32)n1CCc1ccccc1)N1CCOCC1 | inactive: -10.3%
Cc1ccc(NC(=O)CN2C(=O)CC(c3ccc(F)cc3)=Nc3ccccc32)cc1F | active: -81.4%
O=C(O)c1ccc(N/N=C/c2cc3c(cc2[N+](=O)[O-])OCO3)cc1 | inconclusive: -45.7%
O=C(C(Cl)Cl)N1c2ccccc2OCC1c1ccccc1 (stereo not drawn) | active: -61.5%
CCCCCCSc1ccc([C@H]2N[C@@](CC(C)C)(C(=O)OC)[C@H]3C(=O)N(CC)C(=O)[C@@H]23)cc1 | inactive: 70.9%
CCN1C(=O)C(CC(=O)NCCc2ccccc2)N(NC(=O)c2cccnc2)C1=S (stereo not drawn) | inconclusive: -46%
Cc1nnc(SCC(=O)N2c3ccccc3C(C)(c3ccccc3)CC2(C)C)s1 (stereo not drawn) | active: -62%
O=C(NCc1ccccc1)C1CCN(S(=O)(=O)c2ccc(N3CCCC3=O)cc2)CC1 | inactive: -14.2%
OCC(O)C1OC(c2ccco2)OC(CO)C1O (stereo not drawn) | inconclusive: -55.2%
CC1=C(C(=O)OCc2ccc3c(c2)OCO3)C(c2ccccc2)NC(=O)N1 (stereo not drawn) | active: -91.8%
COC(=O)c1cnc(SCc2ccc(C)cc2)n1C | inactive: -21.6%
CCc1nnc(NC(=O)c2ccc(COc3ccc(C)cc3)o2)s1 | inactive: -4.56%
Cn1cccc1CC(=O)N/N=C/C=C/c1ccccc1 | inactive: -3.08%
CCOC(=O)c1ccc(S(=O)(=O)Nc2cc(S(=O)(=O)N3CCOCC3)ccc2O)cc1 | inactive: -19%
CC(=O)c1cccc(NC(=O)Cn2c(=O)oc3cc(S(=O)(=O)NC4CCCC4)ccc32)c1 | inactive: 7.35%
NNC(=O)CCC(=O)Nc1ccccc1 | inconclusive: -42.7%
CCOC(=O)C1(CC2CC2)CCN(Cc2cnc(-c3ccc(OC)cc3)nc2)CC1 | active: -62.3%
Cc1ccc(NC(=O)c2ccco2)cc1 | inconclusive: -51.7%
Nc1ccc(/C=C/c2ccc3ncccc3c2)cc1 | inactive: 60.8%
CN(C)CCNC(C(=O)Nc1cccc(C(F)(F)F)c1)c1ccccc1 (stereo not drawn) | inactive: -15.5%
Cc1[nH]nc2c1C(c1ccsc1C)C(C#N)=C(N)O2 (stereo not drawn) | inconclusive: -45.6%
